Results: PubChem BioAssay AID485349 (National Center for Advancing Translational Sciences (NCATS), 2010)
About 620 (0.19%) of roughly 320,000 compounds were called active. The inconclusive results got no clear call from the source; some entries with a clear call stand among them for comparison. Calls follow the shape of the dose curve; as a rule, active = well fitted activation curve with a large enough effect; inconclusive = small, poorly fitted or top-dose-only effect; inactive = no such curve, though single readings can be large or run the other way. Potencies beside an inconclusive call are fits to weak or partial responses and may not hold up.

test: qHTS Assay for Identifying a Potential Treatment of Ataxia-Telangiectasia; conditions: […] A-T fibroblasts, KAP-1 phosphorylation AlphaLISA, neocarzinostatin DNA damage 30 min before lysis; series mostly up to 57.5 µM; activation: at the top concentration; also: nearly all actives have a fitted effect of over 45% in size; as to activation: % of control where 0% means no effect
Procedure, shortened: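 hTERT-immortalized A-T patient fibroblasts ([…]), 500 cells/well in OPTI-MEM, 1% FBS, got compounds for 60 min, then NCS for 30 min at 37C. Lysates were then assayed for phospho-KAP-1 by AlphaLISA (anti-pKAP1 donor, anti-KAP1 acceptor beads), 6 hr at 25C.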
Potency is read from the fitted curve at half-maximal effect.

Compound	activation	Potency
COCCn1nnnc1CN(Cc1ccco1)Cc1cc2cc3c(cc2[nH]c1=O)OCO3	inactive: 2%	
Nc1ccc(/C=C/c2ccc3ncccc3c2)cc1		inconclusive: 2.51 µM [activator, partial curve]
Cc1nnc(SCC(=O)N2c3ccccc3C(C)(c3ccccc3)CC2(C)C)s1 (configuration not stated)	inactive: 8.05%	
CN1C(=O)/C(=N/OC(=O)c2ccccc2)c2ccccc21		inconclusive: 31.6 µM [activator, single point]
CN1CCN(C(=O)C2CCC(=O)N(CCc3cccc(F)c3)C2)CC1 (configuration not stated)		inconclusive: 1.12 µM [activator, partial curve]
Cc1cc(C)c2nc(N3C(=O)C(O)=C(C(=O)c4ccco4)C3c3ccc(O)cc3)sc2c1 (configuration not stated)	inactive: -12.3%	
CCN1C(=O)[C@H]2[C@@H](c3ccc(-c4cccc(Cl)c4)cc3)N[C@@](C)(C(=O)OC)[C@H]2C1=O		inconclusive: 39.8 µM [activator, partial curve, poor fit]
COC(=O)c1nc2cc3c(cc2c(C)c1C(=O)OC)OCO3		inconclusive: 28.2 µM [activator, single point]
Cc1nc(SCc2ccccc2)c2oc3ccccc3c2n1		inconclusive: 22.4 µM [activator, partial curve, poor fit]
CCCCN(CCCC)CCCN1CC(=O)N2[C@@H](Cc3c([nH]c4ccccc34)C2(C)C)C1=O		inconclusive: 6.31 µM [activator, single point]
Cc1ccc2nc(-c3ccc(-c4cccc(Cl)c4)cc3)c(NCc3ccccc3)n2c1		active: 25.1 µM
Cn1nc(C(F)(F)F)c(-c2cccc(C(F)(F)F)c2)c1NC(=O)c1nccnc1C(=O)O		inconclusive: 39.8 µM [activator, partial curve, poor fit]
Cc1ccc2nc(/C(C#N)=C\c3cc(O)ccc3[N+](=O)[O-])[nH]c2c1	inactive: -2.53%	
N/C(Cc1cccs1)=N\OC(=O)COc1ccccc1Cl		inconclusive: 39.8 µM [activator, single point]
O=C(Cc1ccc(S(=O)(=O)N2CCOCC2)s1)Nc1cc(C(F)(F)F)ccc1N1CCCC1	inactive: -12%	
COc1ccc(C(C)=O)cc1CSc1nnnn1-c1ccc(O)cc1		inconclusive: 11.2 µM [activator, partial curve]
CCOc1ccc(N(CC(=O)Nc2cc(C)ccc2C)S(=O)(=O)c2c(C)[nH]c(=O)[nH]c2=O)cc1		active: 28.2 µM
C=CCN(CC=C)C(=S)Nc1ccc2nsnc2c1		inconclusive: 31.6 µM [activator, single point]
COc1ccc([C@@H]2CC(=O)c3c(O)cc(O)cc3O2)cc1O		inconclusive: 39.8 µM [activator, partial curve]
O=C(Nc1ccccc1)c1ccc(S(=O)(=O)N2CCC(C(=O)O)CC2)cc1		inconclusive: 4.47 µM [activator, full curve, poor fit]
COC(=O)c1ccc(C2/C(=C(\O)c3ccc4c(c3)OCCO4)C(=O)C(=O)N2c2nnc(C)s2)cc1 (configuration not stated)	inactive: 2.2%	
Cc1ccc2nc(-c3cccc(-c4cccc(Cl)c4)c3)c(NCc3ccccc3)n2c1		inconclusive: 20 µM [activator, partial curve]
COc1cc(C(=O)NCCC(=O)NCCCN2CCCCC2)cc(OC)c1OC		inconclusive: 7.08 µM [activator, partial curve]

Compound	activation	Potency
C/C(=N\Nc1ccc(F)cc1F)c1ccc(Br)s1		inconclusive: 39.8 µM [activator, single point]
CC1(C)Cc2ccccc2-c2nc3ccccc3c(=O)n21		inconclusive: 39.8 µM [activator, partial curve]
CN1c2ccccc2-c2nc3ccccc3n2C1c1cccs1 (configuration not stated)		inconclusive: 22.4 µM [activator, partial curve]
O=C(NCc1ccccc1)C(=O)NCC1OCCN1S(=O)(=O)c1ccc([N+](=O)[O-])cc1 (configuration not stated)	inactive: 0.684%	
COc1cccc(/C=C2\CCc3ccccc3C2=O)c1		inconclusive: 39.8 µM [activator, single point]
COC(=O)Cc1c(C)c2ccc(OCC(=O)c3ccc(OC)c(OC)c3)cc2oc1=O		inconclusive: 3.55 µM [activator, single point]
O=C(N/N=C/c1cccs1)c1cccc(NC(=O)c2ccc(Cl)cc2)c1		inconclusive: 39.8 µM [activator, single point]
Cc1ccc(OC(=O)c2cc(C)nn2C(C)(C)C)cc1		inconclusive: 39.8 µM [activator, single point]
CNc1nc(Sc2ccc(C)cc2)cc(C(F)(F)F)n1		inconclusive: 39.8 µM [activator, single point]
CCOc1ccccc1C(=O)N(C)Cc1cc2cc(OC)ccc2[nH]c1=O	inactive: 1.43%	
NS(=O)(=O)c1ccc(N2N=C(c3ccccc3)CC2c2cccc(Cl)c2)cc1 (configuration not stated)		inconclusive: 35.5 µM [activator, single point]
CC1=CC(=O)N(c2cccc(C(F)(F)F)c2)C1c1ccc(Cl)cc1 (configuration not stated)	inactive: -3.21%	
COc1ccc(OC)c2sc(NC(=O)C3=COCCO3)nc12		inconclusive: 20 µM [activator, partial curve]
CC(C)(C)Nc1c2ccccc2nc2ccccc12		inconclusive: 39.8 µM [activator, single point]
COc1cc2c(C(=O)O)c(C)n(CC(C)C)c2c2ccccc12		inconclusive: 12.6 µM [activator, partial curve]
O=C(NC1CCCCC1)N1CCc2[nH]c3ccccc3c2C1		inconclusive: 28.2 µM [activator, partial curve]
O=C(OCc1c(F)cccc1Cl)c1cnccn1	inactive: 4.76%	
COc1ccc(NC(=O)CN(C)C(=O)c2cc(-c3ccco3)nc3ccccc23)cc1	inactive: 4.03%	
CCOC(=O)C1CCN(C(=O)Cc2ccc(OC)c(OC)c2)CC1		inconclusive: 2.24 µM [activator, partial curve]
O=c1c2c([N+](=O)[O-])cc([N+](=O)[O-])cc2sn1-c1ccc(Br)cc1	inactive: -9.63%	
COc1cc2cc(CN(Cc3cccs3)C(=S)Nc3ccccc3)c(=O)[nH]c2cc1OC	inactive: 8%	
CCn1nc(NC(=O)COC)c2cc3cccc(C)c3nc21		inconclusive: 25.1 µM [activator, partial curve]
Cc1ccc(C(C)C)c(OCCCN2CC(C)OC(C)C2)c1 (configuration not stated)		inconclusive: 31.6 µM [activator, single point]

Compound	activation	Potency
CCCc1nn(C)c(C(=O)Nc2ccc(C(C)(C)C)cc2)c1Cl		active: 35.5 µM
COC(=O)[C@H]1C[C@@H](c2ccccc2)[C@H](C)C1(C)C		inconclusive: 39.8 µM [activator, single point]
Brc1ccc(-c2nn[nH]n2)cc1		inconclusive: 0.631 µM [activator, full curve, poor fit]
Clc1ccc(CN2CC[C@H]3C=CCc4cccc(c43)C2)cc1		active: 35.5 µM
CN1CCN(CC(=O)Nc2ccc(OC(F)(F)F)cc2)CC1		inconclusive: 44.7 µM [activator, partial curve]
CCCCCCCCC1=NCCc2c1[nH]c1ccccc21		inconclusive: 39.8 µM [activator, single point]
CCCCCCc1cc2cc(S(=O)(=O)c3ccc(F)c(Cl)c3)c(=O)oc2cc1O		active: 28.2 µM
Cc1cccc(C)c1OCCNC(=O)c1ccc2ccccc2n1		inconclusive: 39.8 µM [activator, single point]
N#Cc1ccccc1S(=O)(=O)N1CCN(C(=O)C2CCCCC2)CC1		inconclusive: 25.1 µM [activator, single point]
CCCc1cc(=O)[nH]c(SCC(=O)N2CCc3ccccc3C2)n1		inconclusive: 39.8 µM [activator, partial curve]
COc1ccc(Cc2c(N)nc(N)nc2N)cc1		inconclusive: 3.55 µM [activator, single point]
Cc1ccc(C)c(N2CCN(C(=O)C3CCN(c4nnc(N5CCCC5=O)s4)CC3)CC2)c1		inconclusive: 25.1 µM [activator, partial curve]
COc1ccccc1OCC(=O)N(Cc1nc(-c2ccccc2)no1)C(C)C	inactive: 7.78%	
COC(=O)c1ccc(S(=O)(=O)N2CCC(O)CC2)n1C		inconclusive: 39.8 µM [activator, single point]
CCc1nnc(NC(=O)CN2C(=O)/C(=C/c3ccc(OC)c(OC)c3)SC2=S)s1		inconclusive: 7.08 µM [activator, single point]
CCN1CCN(Cc2ccc(NC(=O)c3ccc(C)c(NC(=O)c4nccnc4N)c3)cc2C(F)(F)F)CC1		inconclusive: 6.31 µM [activator, full curve, poor fit]
Cc1cccc(N=C2NC(=O)/C(=C/C=C/c3ccco3)S2)c1C	inactive: -19.3%	
Cc1ccc(NC(=O)c2c(-c3c(F)cccc3Cl)noc2C)cc1F		inconclusive: 39.8 µM [activator, partial curve, poor fit]
C=C1CCC[C@]2(C)C[C@H]3OC(=O)C(CN4CCCCC4CO)[C@H]3CC12 (some centres not stated)		inconclusive: 2.82 µM [activator, full curve, poor fit]
Cc1c(C(=O)N/N=C/c2ccoc2)cccc1[N+](=O)[O-]		inconclusive: 39.8 µM [activator, single point]
CCCCn1c(N)c(N(CCC(C)C)C(=O)C2CC(=O)N(Cc3ccc(C)cc3)C2)c(=O)[nH]c1=O (configuration not stated)		inconclusive: 3.16 µM [activator, partial curve]

A draw from above in order of molecular weight, largest number first:
Compound	activation	Potency
CCN1CCN(Cc2ccc(NC(=O)c3ccc(C)c(NC(=O)c4nccnc4N)c3)cc2C(F)(F)F)CC1		inconclusive: 6.31 µM [activator, full curve, poor fit]
COc1ccccc1OCC(=O)N(Cc1nc(-c2ccccc2)no1)C(C)C	inactive: 7.78%	
CN1CCN(CC(=O)Nc2ccc(OC(F)(F)F)cc2)CC1		inconclusive: 44.7 µM [activator, partial curve]
